Screening data

Source: PubChem BioAssay AID1224904 (Broad Institute, 2016).

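Selective DUX4 reporter inhibition in doxycycline-induced 293T-iDUX4 cells, scored as Gaussia percent activity minus Italica percent activity, after a 24-hour treatment. The test concentration is not given here. Percent difference between the Gaussia and Italica channels; more negative values mean more selective suppression of the DUX4 reporter, and higher values mean less activity.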

Values are in %. The controls that fix the scale are not given here. Common to all entries: measured here: selective DUX4 reporter inhibition. Part of the compounds only, not a random draw; the main read-out is not listed here.

For Cc1cccc(S(=O)(=O)N2C[C@@H]3N[C@H](C2)C3c2ccc(-c3cccnc3)cc2)c1 (stereo partly specified) the result was Gaussia minus Italica difference -18.11%. Result for C[C@H](NC(=O)C[C@H]1C[C@@H]2c3cc(NC(=O)Nc4ccc(C(F)(F)F)cc4)ccc3O[C@@H]2[C@H](CO)O1)c1ccccc1 was Gaussia minus Italica difference -1.08%. For O=C(C1CCC1)N1[C@@H](CO)[C@@H](c2ccccc2)C12CN(Cc1cccc(Cl)c1)C2 the result was Gaussia minus Italica difference -6.139%. Result for CCCNC(=O)N1[C@H](CO)[C@H](c2ccccc2-c2ccc(OC)cc2)[C@@H]1C#N was Gaussia minus Italica difference -5.381%. For O=C(Nc1ccc2c(c1)[C@@H]1C[C@@H](CC(=O)N3CCc4ccccc4C3)O[C@@H](CO)[C@@H]1O2)c1cccnc1 the result was Gaussia minus Italica difference -5.369%.

For O=S(=O)(c1cccs1)N1CCCCN2[C@H](CO)[C@H](c3ccc(/C=C/c4ccccc4)cc3)[C@H]2C1 the result was Gaussia minus Italica difference 1.166%. Result for O=C(C[C@@H]1CC[C@@H]2[C@H](COC[C@H](O)CN2Cc2cccc(C(F)(F)F)c2)O1)NCc1ccc(Cl)cc1 was Gaussia minus Italica difference -11.94%. Result for Cc1ccc(-c2ccc([C@@H]3[C@H](CO)N4CCCCN(C(=O)Nc5ccccc5)C[C@@H]34)cc2)cc1 was Gaussia minus Italica difference 9.618%. With Cc1ccc(-c2ccc([C@@H]3[C@@H]4CN(Cc5ccccc5F)C[C@H]3N4)cc2)cc1 the assay gave Gaussia minus Italica difference -0.3188%. Cc1noc(C)c1S(=O)(=O)N(C)C[C@@H]1OCc2ccccc2-c2c(n(C)c3ccccc23)C(=O)N([C@H](C)CO)C[C@@H]1C read Gaussia minus Italica difference 2.947%.

With C/C=C/c1ccc2c(c1)[C@@H]1[C@@H](CCN1S(=O)(=O)c1ccccc1C)[C@H](CO)N2 the assay gave Gaussia minus Italica difference -19.04%. O=C(Cc1ccccn1)N1CCCCN2[C@H](C1)[C@@H](c1ccc(C#Cc3ccccc3)cc1)[C@@H]2CO read Gaussia minus Italica difference 2.867%. With O=C(Cc1ccccn1)N[C@H]1CC[C@H](CCNS(=O)(=O)c2cccc(F)c2)O[C@@H]1CO the assay gave Gaussia minus Italica difference -10.03%. With OC[C@H]1[C@@H](c2ccccc2)C2(CN(Cc3nccs3)C2)N1CCC(F)(F)F the assay gave Gaussia minus Italica difference -9.011%. Result for CCCN1[C@@H]2c3ccc(-c4ccc(F)cc4)c(=O)n3C[C@@H]2[C@@H](CO)[C@@H]1C(=O)N[C@H](C)c1ccccc1 was Gaussia minus Italica difference -13.03%.

Result for Cc1ccccc1S(=O)(=O)N(C)C[C@@H]1OCc2ccccc2-c2ccccc2C(=O)N([C@@H](C)CO)C[C@@H]1C was Gaussia minus Italica difference 2.817%. Result for CC(C)NC(=O)N1CC(=O)N2[C@H](CO)[C@@H](c3ccc(/C=C/c4ccccc4)cc3)[C@H]2C1 was Gaussia minus Italica difference 0.7444%. With O=C(C[C@@H]1CC[C@H]2[C@@H](COC[C@@H](O)CN2Cc2ccccc2F)O1)N1CCc2ccccc2C1 the assay gave Gaussia minus Italica difference -6.97%. With CCS(=O)(=O)N1CCC2(CC1)CN(Cc1ccccc1OC)[C@H](CO)c1c2c2ccc(OC)cc2n1C the assay gave Gaussia minus Italica difference -0.2901%. For COc1ccccc1CN1CC2(C1)[C@H](c1ccccc1)[C@@H](CO)N2Cc1ccccc1 the result was Gaussia minus Italica difference -21.65%.

With COc1ccccc1-c1ccc2c(c1)[C@H]1[C@H](CCN1S(=O)(=O)c1cccc(C)c1)[C@@H](CO)N2 the assay gave Gaussia minus Italica difference 40.48%. With C[C@H](NC(=O)C[C@H]1CC[C@H]2[C@@H](COC[C@H](O)CN2C(=O)Nc2cc(Cl)cc(Cl)c2)O1)c1ccccc1 the assay gave Gaussia minus Italica difference 2.073%. N#Cc1cccc(-c2ccc3c(c2)[C@H]2[C@H](CCN2C(=O)c2ccncc2)[C@H](CO)N3)c1 gave Gaussia minus Italica difference -16.06%. Cc1cccc(-c2ccc(C3[C@@H]4CN(C(=O)c5ccncc5)C[C@H]3N4)cc2)c1 (stereo partly specified) gave Gaussia minus Italica difference -6.154%. With COc1cccc(-c2ccc3c(c2)[C@H]2[C@H](CCN2S(=O)(=O)c2ccccc2F)[C@@H](CO)N3)c1 the assay gave Gaussia minus Italica difference 20.41%.

CCCN1[C@H](C(=O)N[C@@H](C)c2ccccc2)[C@@H](CO)[C@@H]2Cn3c(ccc(-c4ccc(F)cc4)c3=O)[C@@H]21 gave Gaussia minus Italica difference -7.676%. For CCCC#Cc1ccc([C@H]2[C@H]3CN(S(=O)(=O)c4ccccc4C)CC(=O)N3[C@H]2CO)cc1 the result was Gaussia minus Italica difference -14.09%. Result for COc1ccc(C#Cc2cnc3c(c2)C(=O)N([C@H](C)CO)C[C@H](C)[C@H](CN(C)C(=O)Nc2cccc4ccccc24)O3)cc1OC was Gaussia minus Italica difference 6.133%. For COCC#Cc1ccc([C@@H]2[C@@H](CO)N3CCCCN(S(=O)(=O)c4ccc(OC)cc4)C[C@@H]23)cc1 the result was Gaussia minus Italica difference -1.007%. O=S(=O)(c1cccs1)N1CCCCN2[C@H](C1)[C@H](c1ccc(-c3ccccc3)cc1)[C@@H]2CO read Gaussia minus Italica difference -9.89%.

For N#C[C@H]1[C@@H](c2ccccc2C2=CCCCC2)[C@H](CO)N1C(=O)c1cccc(F)c1 the result was Gaussia minus Italica difference -8.457%. N#Cc1cccc(-c2ccc(C3[C@H]4CNC[C@@H]3N4Cc3cc(F)ccc3F)cc2)c1 (stereo partly specified) gave Gaussia minus Italica difference 0.5554%. CCCNC(=O)[C@@H]1[C@@H](CO)[C@@H]2Cn3c(ccc(-c4ccccc4)c3=O)[C@H]1N2Cc1ccccc1F read Gaussia minus Italica difference -9.545%. Result for COc1ccccc1CN1C[C@@H]2N[C@H](C1)C2c1ccc(-c2ccc(C#N)cc2)cc1 (stereo partly specified) was Gaussia minus Italica difference -0.9847%. For CC(=O)N1CC2(C1)[C@@H](c1ccc(-c3cccc(F)c3)cc1)[C@@H](CO)N2CC1CCCC1 the result was Gaussia minus Italica difference 0.4904%.

Result for COc1ccc(CN2C[C@@H](C)[C@@H](OC)CN(C)C(=O)c3cc(NC(=O)c4nc5ccccc5s4)ccc3OC[C@H]2C)cc1 was Gaussia minus Italica difference -10.92%. With COc1ccccc1-c1ccc2c(c1)[C@H]1[C@H](CCN1C(=O)C1CCOCC1)[C@H](CO)N2 the assay gave Gaussia minus Italica difference 21.38%. O=C(Nc1ccc2c(c1)[C@@H]1C[C@@H](CC(=O)N3CCc4ccccc4C3)O[C@@H](CO)[C@@H]1O2)c1ccc2c(c1)OCO2 gave Gaussia minus Italica difference 4.6%. Result for COc1ccc2c3c([nH]c2c1)[C@@H](CO)N(S(C)(=O)=O)CC31CCN(Cc2ccccc2)CC1 was Gaussia minus Italica difference 8.655%. Result for CO[C@H]1CN(C)C(=O)c2cc(NS(=O)(=O)c3cccc(F)c3)ccc2OC[C@H](C)N(Cc2cc(F)ccc2F)C[C@@H]1C was Gaussia minus Italica difference -7.24%.

Repeated from the top, 3 entries:

| structure | Gaussia minus Italica difference (%) |
|---|---|
| `Cc1cccc(S(=O)(=O)N2C[C@@H]3N[C@H](C2)C3c2ccc(-c3cccnc3)cc2)c1` (stereo partly specified) | -18.11 |
| `C[C@H](NC(=O)C[C@H]1C[C@@H]2c3cc(NC(=O)Nc4ccc(C(F)(F)F)cc4)ccc3O[C@@H]2[C@H](CO)O1)c1ccccc1` | -1.08 |
| `O=C(C1CCC1)N1[C@@H](CO)[C@@H](c2ccccc2)C12CN(Cc1cccc(Cl)c1)C2` | -6.139 |